Measurements: patent US11079383B2, “Diagnosis and monitoring treatment of prostate cancer” (THE GENERAL HOSPITAL CORPORATION, priority 2012, dated 2021)
For at least one compound, name, drawing or mass did not settle the structure.

Legend:
[1] = test system: CTCs from patients with CRPC; test: AR signaling phenotypes in CTCs from CRPC patients before and after second line hormonal therapy (HBCTC-Chip); assay type: in vivo, human; conditions: ketoconazole N=1, bicalutamide N=2, abiraterone acetate N=13
Protocol: Patients and Clinical Specimens Patients with metastatic prostate cancer receiving treatment at the Massachusetts General Hospital (MGH) were recruited according to an institutional review board (IRB) approved protocol. A total of 21 prostate cancer patients donated 10-20 mL of blood on one or more occasions for CTC analysis. A total of 21 male patients with no known diagnosis of cancer were recruited during routine visits to the MGH outpatient internal medicine clinic according to a separate IRB approved protocol. […]
(§1) Immunofluorescence Staining and Automated Fluorescence Microscopy To establish and validate the immunofluorescence single cell AR signature, LNCaP cells were cultured in media containing 10% charcoal-stripped serum for 3 days followed by treatment with 1 nM R1881 or 10 μM bicalutamide for 24 hours. […] An automated upright fluorescence microscopy scanning system (BioView) fitted with a precision motorized stage and xenon arc lamp (Lumen 2000, Prior Scientific) was used to comprehensively image each CTC-chip under 10× magnification in seven z-planes. Due to inherent auto fluorescence of biological samples that can interfere with the specificity of stains in the green spectra, the negative control marker, CD45, was paired with the Alexa Fluor 488 secondary antibody. […]

LNCaP cells = test: Multiparameter single cell immunofluorescence assay for AR signaling (PSA/PSMA) in LNCaP cells; assay type: cell-based, human; conditions: LNCaP cells cultured under standard conditions, 10 μM bicalutamide
From the text: To achieve multiparameter single cell analysis of AR activity, an automated fluorescence microscopy scanning platform was adapted to distinctly and specifically measure four fluorescent emission spectra simultaneously. Secondary fluorophores and optical band pass filters were selected to avoid “cross-talk” between the multiple fluorescent signals that are closely located on the electromagnetic spectrum, while maximizing signal intensity. The disclosed assay for quantitative measurement of signal intensity profiles for cells stained with antibodies against PSA and PSMA was developed using a model cell system (LNCaP). […]
as §1

In the case of CC(O)(CS(=O)(=O)c1ccc(F)cc1)C(=O)Nc1ccc(C#N)c(C(F)(F)F)c1 (centres unmarked) [bicalutamide], the “Effect of second line hormonal treatment on CTC numbers and AR phenotypes” value [1] is reported as “varying effects on CTC numbers and AR phenotypes” and the “AR signaling phenotype (PSA/PSMA signal intensity profile) over time” value (LNCaP cells) is reported as “reverse progression was observed”.
